This data set concerns Nb.BsrDI nicking endonuclease. As to the kind of experiment: enzyme reaction in vitro. The settings on record: T15 carries Atto 594, T28 carries BHQ-2; 5' phosphate on oligonucleotide 5; iterated nicking of oligonucleotide 4 at 56 C releases Atto 594 fluorescence; Mg acetate, K acetate, pH 7.9; no significant signal without dNTPs; purified recombinant protein; protein details: New England Biolabs; label: Atto 594/BHQ-2.

Construct, isoform or probe ends are uncertain for at least one entry.

This is an account of results in patent US20190203273.

Turning to “TTCATCAGTATACTTGCTAACATTGCATAGGTTCACGATA / GTTAGCAAGA”, the “activity on this sequence” value was “active”.
